Results published in PubChem BioAssay AID1671190 (National Center for Advancing Translational Sciences (NCATS), 2021).
Values joined by “and” are separate entries in the source; they are usually repeats but may differ in a detail not shown here. Equal entries are not always repeated. Screen size: about 580,000 compounds; about 6,100 (1.1%) were called active. Inconclusive results, whose numbers are uncertain, are shown with a selection of clear calls. Calls come from the whole dose curve; as a rule, active = well fitted inhibition curve with a large enough effect; inconclusive = small, poorly fitted or top-dose-only effect, or another doubt; inactive = no such curve, though single readings can be large or run the other way. Potencies beside an inconclusive call are fits to weak or partial responses and may not hold up.

The chains behind the UniProt entries cited, without tags or fusion partners. Where a name states a change or a piece, a line headed by the entry shows the natural chain unless it says otherwise.
UniProt P18054: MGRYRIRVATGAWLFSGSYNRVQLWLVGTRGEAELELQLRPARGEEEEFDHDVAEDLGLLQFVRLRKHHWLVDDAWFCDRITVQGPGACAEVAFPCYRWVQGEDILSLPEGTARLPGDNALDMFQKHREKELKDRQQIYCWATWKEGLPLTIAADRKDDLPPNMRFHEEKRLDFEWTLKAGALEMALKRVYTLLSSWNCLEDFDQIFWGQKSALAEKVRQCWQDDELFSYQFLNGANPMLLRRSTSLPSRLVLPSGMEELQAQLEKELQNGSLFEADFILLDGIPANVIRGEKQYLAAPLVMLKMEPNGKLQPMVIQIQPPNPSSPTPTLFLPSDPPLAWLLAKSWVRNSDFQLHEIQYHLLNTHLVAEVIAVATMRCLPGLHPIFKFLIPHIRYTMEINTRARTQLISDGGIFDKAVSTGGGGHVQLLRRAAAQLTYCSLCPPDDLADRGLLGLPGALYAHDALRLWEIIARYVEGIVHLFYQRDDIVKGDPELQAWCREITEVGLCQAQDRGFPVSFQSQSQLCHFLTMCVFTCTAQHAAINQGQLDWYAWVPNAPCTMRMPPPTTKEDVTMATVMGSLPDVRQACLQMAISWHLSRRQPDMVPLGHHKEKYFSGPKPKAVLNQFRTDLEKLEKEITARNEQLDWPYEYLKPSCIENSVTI

Target: Polyunsaturated fatty acid lipoxygenase ALOX12 (Homo sapiens) (UniProt P18054)
Test: Primary qHTS assay for inhibitors of human arachidonate 12S-lipoxygenase (ALOX12): Round 2
Conditions: purified 12hLO, xylenol orange hydroperoxide absorbance; activity change, negative = inhibition: at 108 µM (top of the series) unless noted
Summary of the method: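 Purified human 12hLO (150 nM final) in 25 mM Hepes, 0.01% Triton X-100, pH 7.0 was preincubated 15 min at room temperature with compound. Then 40 uM arachidonic acid was added, 30 min. Hydroperoxide was read by Fe-XO absorbance ratio 573/405 nm.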
% is set by controls: 0 for no effect and ±100 for the full control effect; potency is the fitted concentration of half-maximal effect.

Compound | Potency | activity change, negative = inhibition
COc1ccccc1NS(=O)(=O)c1ccc(C(=O)NCC(c2ccccc2OC)N(C)C)cc1 (centres undefined) | inconclusive: 28.2 µM [inhibitor, single point] | –
CCc1noc(-c2cn(C3CCN(C(=O)c4ccoc4)CC3)nn2)n1 | inactive | –
Cn1c(SCC(=O)Nc2ccc(C(N)=O)cc2)nc2c(c1=O)SCC2 | inconclusive: 39.8 µM [inhibitor, partial curve, poor fit] | –
O=C(CCCO)NNc1c2ccccc2nc2ccccc12 | inconclusive: 100 µM [inhibitor, partial curve, poor fit] | –
COC(=O)c1ccccc1NC(=O)CSc1nnc(Cc2ccc(Cl)cc2)o1 | inconclusive: 56.2 µM [inhibitor, partial curve, poor fit] | –
Cc1ccc(C)c(NC(=O)C(Nc2ccc3oc(C)nc3c2)c2ccccc2)c1 (centres undefined) | inconclusive: 89.1 µM [inhibitor, single point] | –
Cc1cc(C)c(N2C(=O)C3C4CC(=O)C(c5ccccc54)C3C2=O)c(C)c1 (centres undefined) | inactive | –
COc1ccc(Cl)cc1C(=O)N1CCc2c(nc3cc(-c4ccccc4)[nH]n3c2=O)C1 | inconclusive: 39.8 µM [inhibitor, single point] | –
CCSc1ccccc1C(=O)Nc1cccc(OC)c1 | inactive | –
CC(O)(c1cccnc1)c1nc(-c2ccoc2)cs1 (centres undefined) | inconclusive: 39.8 µM [inhibitor, partial curve, poor fit] | –
O=C(Nc1ccc(C(=O)N2CCN(c3ccccc3F)CC2)cc1)c1nsc2ccccc12 | inconclusive: 141 µM [inhibitor, partial curve, poor fit] | –
Cc1cc(Cl)ccc1OC(C)C(=O)Nc1ccc(S(=O)(=O)Nc2cnc3ccccc3n2)cc1 (centres undefined) | inconclusive: 15.8 µM [inhibitor, partial curve, poor fit] | –
c1ccc2c(N3CCNCC3)nc(-c3ccoc3)nc2c1 | inactive | –
Cc1ccc(S(=O)(=O)Nc2ccc(O)c3ccccc23)c(C)c1 | inconclusive: 3.98 µM [inhibitor, full curve, poor fit] | –
CCNC(=O)CN1CCN(C(C(=O)O)c2cn(CC(=O)O)c3ccccc23)CC1 (centres undefined) | inconclusive: 5.62 µM [inhibitor, partial curve, poor fit] | –
O=C(Cc1ccc(Cl)cc1)Nc1ccc(Br)cn1 | inactive | –
O=c1c2nnn(Cc3ccccc3)c2ncn1Cc1nc(-c2ccc(OC(F)(F)F)cc2)no1 | inactive | –
CCn1cc(C(=O)NC(=S)Nc2ccccc2[N+](=O)[O-])cn1 | inconclusive: 44.7 µM [inhibitor, partial curve, poor fit] | –
CC(=O)c1ccc(OCc2cc(C(=O)N3CC[C@@H]4CCCC[C@H]4C3)no2)cc1 | inconclusive: 126 µM [inhibitor, single point] | –
CCN1CSC(=S)N(Cc2ccc(OC)cc2)C1 | inactive | –
CC(C)(C)NC(=O)C(c1ccc(C(F)(F)F)cc1)n1c(=O)c(-c2ccccc2)nc2ccccc21 (centres undefined) | inconclusive: 100 µM [inhibitor, single point] | –
C=CCn1c(SCC(=O)NCCc2ccccc2)nnc1C(C)NC(=O)c1cccs1 (centres undefined) | inconclusive: 39.8 µM [inhibitor, partial curve, poor fit] | –

Compound | Potency | activity change, negative = inhibition
CC1CCC2(CC1)OCC(C(=O)NCc1ccc3c(c1)OCO3)N2C(=O)c1ccccc1F (centres undefined) | inconclusive: 39.8 µM [inhibitor, partial curve, poor fit] | –
CCSc1ccc2nnc(-c3ccc(F)cc3)n2n1 | inconclusive: 35.5 µM [inhibitor, partial curve, poor fit] | –
Cc1ccc(S(=O)(=O)NCCc2ccccc2)cc1 | inactive | –
Cc1ccc(C(=O)NCCN2C3=NC[C@@H](Cc4ccccc4)N3C[C@H]2Cc2ccc(O)cc2)cc1Br | inconclusive: 50.1 µM [inhibitor, partial curve, poor fit] | –
CC(C)COP(=O)(c1ccc(N(C)C)cc1)C(O)c1ccncc1 (centres undefined) | inconclusive: 70.8 µM [inhibitor, single point] | –
Cc1ccc2nc(-c3ccc(Cl)cc3)c(Cc3ccsc3)n2c1 | inconclusive: 100 µM [inhibitor, single point] | –
NC(=O)c1ccc(NC(=O)CNCc2ccccc2Cl)cc1 | inconclusive: 3.16 µM [inhibitor, full curve, poor fit] | –
COc1ccc2c(CC(=O)NCc3ccc4c(c3)OCO4)coc2c1 | inconclusive: 63.1 µM [inhibitor, partial curve, poor fit] | –
O=C(O)c1cccc(S(=O)(=O)NCCc2ccccc2)c1 | inactive | –
CCc1ccc(NC(=O)Nc2ccccc2OCc2cc(=O)n3ccccc3n2)cc1 | inactive | –
CCOc1ccc(-c2nnc(-c3ccncc3)o2)cc1 | inactive | –
CCOC(=O)C(=O)CC(=O)c1ccc(Cl)cc1Cl | inconclusive: 10 µM [inhibitor, full curve, poor fit] | –
CC(=O)Oc1c(-c2ccc(NC(=O)CC(C)C)cc2)c(-c2ccc(F)cc2)nn1-c1ccc(F)cc1 | inconclusive: 6.31 µM [inhibitor, full curve] | –
COc1cccc(S(=O)(=O)N2CCC(n3c(C)cnc3C3CC3)CC2)c1 | inactive | –
COC(=O)C1=CN(Cc2ccc(F)cc2)C=C(C(=O)OC)C1c1ccc(O)cc1 | inconclusive: 100 µM [inhibitor, single point] | –
Cc1ccc(/C=c2\sc3nc(-c4ccccc4Br)nn3c2=O)o1 | inconclusive: 4.47 µM [inhibitor, full curve] | –
NC(=O)CC(NC(=O)Cc1cccc2ccccc12)c1ccc(NCCCN2CCCC2=O)c([N+](=O)[O-])c1 (centres undefined) | inconclusive: 141 µM [inhibitor, partial curve, poor fit] | –
COC(=O)[C@@]12CCCN1[C@H](c1ccc(-c3ccc4c(c3)OCO4)c(OC)c1)[C@H]1C(=O)N(C)C(=O)[C@H]12 | inconclusive: 79.4 µM [inhibitor, single point] | –
N=C1/C(=C\c2ccc(SCc3ccco3)o2)C(=O)N=C2SC=NN12 | inactive | –
N=c1n(CCN2CCOCC2)c2ccccc2n1CC(=O)c1ccc(Cl)c(Cl)c1 | inconclusive: 50.1 µM [inhibitor, partial curve, poor fit] | –
COc1ccc(C(CNC(=O)c2cccc(S(=O)(=O)Nc3ccc(F)cc3)c2)N(C)C)cc1 (centres undefined) | inconclusive: 56.2 µM [inhibitor, partial curve, poor fit] | –
CC(C)COCC(CN(Cc1ccccc1)c1ccccc1)N1CCCC1 (centres undefined) | inconclusive: 141 µM [inhibitor, single point] | –

Complete entries as entered above. Values in the order: Potency | activity change, negative = inhibition
`N=c1n(CCN2CCOCC2)c2ccccc2n1CC(=O)c1ccc(Cl)c(Cl)c1` is entered as inconclusive: 50.1 µM [inhibitor, partial curve, poor fit] | –
`N=C1/C(=C\c2ccc(SCc3ccco3)o2)C(=O)N=C2SC=NN12` is entered as inactive | –

Next compounds follow:

Compound | Potency | activity change, negative = inhibition
COc1ccc(C(CNCC(O)COc2c(C)ccc(C)c2C)N(C)C)cc1 (centres undefined) | inconclusive: 5.01 µM [inhibitor, full curve] | –
CCCN1CCC2(CCN(C(C)=O)CC2)Oc2ccccc21 | inconclusive: 79.4 µM [inhibitor, partial curve] | –
Cc1nc(N2CCC(C(=O)Nc3cccc(Br)c3)CC2)c2c(C)c(C)oc2n1 | inconclusive: 39.8 µM [inhibitor, partial curve, poor fit] | –
O=Cc1ccccc1OCc1ccccc1 | inactive | –
CCN(CC)CCOC(=O)c1ccc(N=CC2=C(O)CC(C)(C)CC2=O)cc1 | inconclusive: 39.8 µM [inhibitor, partial curve, poor fit] | –
O=C(CCC1CCCC1)N1CCN(C2CCCC2)CC1 | inconclusive: 0.631 µM [inhibitor, full curve, poor fit] | –
CCCn1c(N2CCN(Cc3ccc(Br)cc3)CC2)nc2c1c(=O)[nH]c(=O)n2C | inconclusive: 15.8 µM [inhibitor, full curve] | –
COc1ccccc1NC(=O)CSc1nc2ccccc2c(=O)n1CCn1cc(Cl)cn1 | inconclusive: 35.5 µM [inhibitor, partial curve, poor fit] | –
O=C(NCCc1csc(-c2cccnc2)n1)c1ccccc1 | inactive | –
Brc1ccc(CN2CCC(c3nc4ncccc4[nH]3)CC2)cc1 | inconclusive: 79.4 µM [inhibitor, single point] and inconclusive: 20 µM [inhibitor, full curve] | –
COCCn1c(SCC(=O)Nc2ccc(C)cc2Br)nc2ccsc2c1=O | inconclusive: 31.6 µM [inhibitor, partial curve, poor fit] | –
CCOc1ccc(C2C(C#N)=C(N)OC(C(C)(C)C)=C2C#N)cc1OCC (centres undefined) | inconclusive: 31.6 µM [inhibitor, partial curve, poor fit] | –
O=C(C1=C(O)C(=O)N(CCCN2CCOCC2)C1c1ccc(Cl)cc1)c1cc2ccccc2o1 (centres undefined) | inconclusive: 50.1 µM [inhibitor, partial curve, poor fit] | –
NC1CCCN(Cc2cccs2)C1 (centres undefined) | inactive | –
COc1ccccc1Cn1c(=S)[nH]c2cc(C(=O)N3CCCC3)ccc2c1=O | active: 44.7 µM | –
CC(=O)c1cccc(NS(=O)(=O)c2ccc3c(c2)CC(C)N3C(C)=O)c1 (centres undefined) | inconclusive: 50.1 µM [inhibitor, partial curve, poor fit] | –
Cc1ccc(CNC(=O)c2ccccc2NCC(=O)N2CC(=O)Nc3ccccc32)cc1 | inconclusive: 100 µM [inhibitor, single point] | –
O=C(O)c1occc1CSc1ccccc1 | inconclusive: 70.8 µM [inhibitor, partial curve, poor fit] | –
Cc1c(C(=O)N2CCOCC2)sc2nc(-c3ccccc3)cn12 | inactive | –
CN(C)c1ccc(CN2CCC3(C2)C(=NC2CCCC2)NC(=O)N3c2cccnc2)cc1 (centres undefined) | – | inactive: 0.681% [at 6.33 µM]
